Among the data in paper doi:10.1101/2020.12.22.423978 are binding values, retold here.

By UniProt entry, the sequences of proteins in these tests, tags left out.
UniProt E9PY46: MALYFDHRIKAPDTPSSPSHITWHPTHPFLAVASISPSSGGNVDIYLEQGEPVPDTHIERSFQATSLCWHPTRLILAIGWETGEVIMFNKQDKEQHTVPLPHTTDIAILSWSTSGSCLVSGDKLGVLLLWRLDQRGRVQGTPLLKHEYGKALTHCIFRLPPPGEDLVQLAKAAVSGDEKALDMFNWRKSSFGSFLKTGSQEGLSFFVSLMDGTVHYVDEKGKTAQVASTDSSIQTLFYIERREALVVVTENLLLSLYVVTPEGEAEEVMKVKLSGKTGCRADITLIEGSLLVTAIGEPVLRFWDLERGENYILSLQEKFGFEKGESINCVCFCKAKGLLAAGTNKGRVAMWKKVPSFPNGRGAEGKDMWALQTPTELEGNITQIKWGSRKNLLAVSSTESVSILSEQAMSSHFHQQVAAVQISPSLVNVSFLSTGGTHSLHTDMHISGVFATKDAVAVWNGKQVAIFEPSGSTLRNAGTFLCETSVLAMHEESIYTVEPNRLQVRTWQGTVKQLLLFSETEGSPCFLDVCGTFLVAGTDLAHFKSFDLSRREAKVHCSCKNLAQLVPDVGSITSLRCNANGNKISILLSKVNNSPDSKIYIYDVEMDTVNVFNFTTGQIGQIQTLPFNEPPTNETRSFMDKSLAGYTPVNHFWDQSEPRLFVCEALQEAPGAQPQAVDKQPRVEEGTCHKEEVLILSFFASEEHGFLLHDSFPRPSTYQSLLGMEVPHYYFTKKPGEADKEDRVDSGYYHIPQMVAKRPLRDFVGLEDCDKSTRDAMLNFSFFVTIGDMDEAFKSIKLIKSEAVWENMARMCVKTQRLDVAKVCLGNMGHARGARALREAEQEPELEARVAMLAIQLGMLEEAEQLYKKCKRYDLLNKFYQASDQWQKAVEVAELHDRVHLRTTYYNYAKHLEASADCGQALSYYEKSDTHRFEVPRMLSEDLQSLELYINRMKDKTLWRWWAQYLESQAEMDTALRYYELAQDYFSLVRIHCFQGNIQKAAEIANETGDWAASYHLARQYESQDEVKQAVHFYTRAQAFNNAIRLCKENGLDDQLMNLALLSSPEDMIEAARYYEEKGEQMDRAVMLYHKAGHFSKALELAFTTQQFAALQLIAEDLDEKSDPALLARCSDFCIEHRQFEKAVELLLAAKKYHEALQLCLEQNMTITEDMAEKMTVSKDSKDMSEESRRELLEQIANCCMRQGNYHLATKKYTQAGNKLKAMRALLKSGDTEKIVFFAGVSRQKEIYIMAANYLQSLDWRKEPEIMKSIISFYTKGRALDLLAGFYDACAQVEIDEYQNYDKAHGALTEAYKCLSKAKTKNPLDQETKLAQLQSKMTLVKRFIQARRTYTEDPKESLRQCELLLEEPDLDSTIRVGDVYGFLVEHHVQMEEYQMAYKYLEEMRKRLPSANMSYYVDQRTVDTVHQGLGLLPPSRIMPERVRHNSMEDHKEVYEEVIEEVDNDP

No constants are given. Whether binding was seen depends on the method and setting. Binding seen in cells or lysates may run through a third protein. Some results given as binding are weak or reduced against the parent protein; the word gives no strength.

The target of the assay is IFT140 (mouse (endogenous in E11.5 embryos)) (UniProt E9PY46). The assay is described as follows: co-IP.

B1: IFT43 (protein, UniProt Q9DA69 1-206)
chain: MDDLLDLGEERRRSSATSGAKMGRRAHQESTQAENYLNSKNSSLTQTGEAPPPKPPRRQGGWADDSMKMAKLGKKVSEEMEDHRLRQQNLMGSDDDDIPVIPDLEDVQEEDFVLQVASPPSIQVNRVMTYRDLDNDLMKYSAFQTLDGEIDLKLLTKVLAPEHEVREDDVGWDWDHLYTEVSSELLTEWDLLRAEKEDPVGPSRYI
Regarding B1, the binding entry is on record as “binds”.

B2: IFT139/TTC21B/THM1 (protein, UniProt Q0HA38 1-1315)
chain: MDSQGLKTLINYYCQERYYHHVLLVASEGMKKYSSDPVFRFYHAYGTLMEGKAQEALREFEAIKNKQDVSLCSLMALMYVHKMSPNPDREAILELDTKMKEQRKEAGRKALYHAGLFLWHIGRHDKAREYIDRMSKMPHDSNEGPILKAWLDITRGKEPYAKKALRYFEEGLQDGNDIFALLGKVLCLEIRQNYSGALETVSQIIVNFPSFLPAFEKKMKLQLALQDWDQTVETAQRLLLQDNHNVEALRMLALYYLCREGDVEKAATKLENLGNALDVMEPQNAQLFYKITLAFSRTCGRNQLILQKVQSFLEKAFSLTPQQAEIATELGYQMILQGKVKEAWKWYRTAMTLNESNISAVTGLIRCQLIEGQLQDADQQLEFFSEFQQSMGKSAELMYLHAVLATKKNNRQDEVINLLNDVVNTHFSHLEDLPLGIQYFEKLNPDFLLEVVTEYLNLCPIQPAGPGQPLSPVLRRCSSVLETIIRSVPGLPQAVFLMAKVKYLSGDTEAAYNNLQHCLEHSPSYAEAHLLMAQVYLSQDKVKLCSQSLELCLSYNFNVREYPLYHLIKAQSQKKMGEVAEAIKTLHMAMNLPGMRRSRASSKSKHRTEVDASHRLSIFLELVEVHRLNGEQHEAAKVLQDAIHEFSGTCEELRVTIANADLALAQGDTDRALSMLRNVTTEQPYFIEAKEKMADIYLKHRKEKMLYITCYREIAERMPSPRSFLLLGDAYMNIQEPEEAIVAYEQALNQNPKDGTLARKIGKALVKTHNYSKAITYYEAALKSGQQNCLCYDLAELLLRLKLYEKAEKVLQHSLAHEPVSELSALMVDGRSQVLLAKVYSKMERPSDAIAALQQARELQARILKRVQMEQPDAVPSQKHFAAEICAEIAKHSAAQRDYEKAITFYREALVHCETDSKIMLELAQLYLAQEDLDASLRHCALLLQRDQDNEPATMLMADLMFRKQDYEQAVYHLQQLLDRKPDNFMTLSRLIDLLRRCGKLEDVPRFFLMAEKHNSRTKLEPGFQYCKGLHFWYTGEPNDALRHFNKARKDSDWGQNALYNMIEICLNPDNETIGGEVFENLNGDLGTSPEKQESVQLAVRTAEKLLKELKPQTVQGRLQLRIMENCCLMATKQKSSVEQALNTFTEIAASEKDHIPALLGMATAYMILKQTPKARNQLKRIAKMPWNPIEAEDLEKSWLLLADIYIQSAKYDMAEELLKRCLCHNRSCCKAYEYMGYIMEKEQAYTDAAFNYEMAWKHSNQTNPAVGYKLAFNYLKAKRYVDAIDVCHQVLEAHPTYPKIRKDILDKARASLRP
For the molecule B2, the binding result is “binds”.
